# Measured data: PubChem BioAssay AID1259282 (Sanger Institute, 2017)
# Purpose: 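Kinase knock-downs that work with targeted colorectal cancer drugs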 (primary screen)
# System: DIFI human colorectal cancer cell line
# Reagent: siRNA pool against human genes
# Challenge: anchor drug at a mild dose (BYL719 1 µM, cetuximab 5 µg/ml, trametinib 10 nM) or DMSO vehicle; exposure time not given
# Measured: 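Robust z-score and replicate-mean viability versus non-targeting pool without drug, plus a synergy score for each low-dose anchor drug (BYL719, cetuximab, trametinib)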
# Scale: robust z-score, knock-down alone: higher = more viable cells than typical knock-down; viability, knock-down alone: higher = more viable cells; synergy score with trametinib and synergy score with cetuximab and synergy score with BYL719: higher = stronger combined killing with drug
# Rule for the call: 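a knock-down is called essential if its DMSO robust z-score is under -3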
# Meaning of the calls: active = essential (knock-down alone, z below -3); inactive = not essential
# Here is a random part of 794 reagents. 11 of them (1.4%) were called active. 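Calls flag knock-downs that lower viability without drug; drug synergy appears only in the synergy scores; exposure time not stated.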 The numbers tell different reagents against one gene apart. Viability is capped at 1. The record does not give: the amount of reagent, the time to read-out.
The first 2 records, to show the layout:
Target gene,reagent no.,"robust z-score, knock-down alone","viability, knock-down alone (fraction of control)",synergy score with trametinib,synergy score with cetuximab,synergy score with BYL719,call
PTK7 (protein tyrosine kinase 7 (inactive)),1,-2.47,0.537,0.0676,0.105,0.00619,inactive
NEK2 (NIMA related kinase 2),1,0.341,0.946,0.0669,0.0838,0.0579,inactive

Main list, from the start:
Target gene,reagent no.,"robust z-score, knock-down alone","viability, knock-down alone (fraction of control)",synergy score with trametinib,synergy score with cetuximab,synergy score with BYL719,call
PTK7 (protein tyrosine kinase 7 (inactive)),1,-2.47,0.537,0.0676,0.105,0.00619,inactive
NEK2 (NIMA related kinase 2),1,0.341,0.946,0.0669,0.0838,0.0579,inactive
ACSL6 (acyl-CoA synthetase long chain family member 6),1,0.715,1,-0.101,-0.138,-0.362,inactive
ITK (IL2 inducible T cell kinase),1,0.715,1,-0.074,-0.137,-0.277,inactive
DNMT3A (DNA methyltransferase 3 alpha),1,0.715,1,0.205,0.147,0.0338,inactive
PRKCSH (PRKCSH beta subunit of glucosidase II),1,0.715,1,-0.042,0.0261,-0.122,inactive
ILK (integrin linked kinase),1,0.715,1,-0.287,-0.074,-0.344,inactive
ILK (integrin linked kinase),2,-1.16,0.727,0.229,0.144,-0.0549,inactive
SGK1 (serum/glucocorticoid regulated kinase 1),1,0.715,1,0.1,0.0394,0.0135,inactive
ATR (ATR checkpoint kinase),1,0.715,1,0.0339,0.0499,0.00918,inactive
RNASEL (ribonuclease L),1,0.447,0.961,0.0313,0.065,-0.0873,inactive
FLT1 (fms related receptor tyrosine kinase 1),1,0.715,1,-0.0203,-0.0959,-0.362,inactive
RAD21 (RAD21 cohesin complex component),1,-1.74,0.644,-0.103,-0.183,-0.141,inactive
SRGAP3 (SLIT-ROBO Rho GTPase activating protein 3),1,0.715,1,-0.0782,-0.0398,-0.29,inactive
EIF2AK4 (eukaryotic translation initiation factor 2 alpha kinase 4),1,0.715,1,0.00216,0.0571,-0.298,inactive
CDK8 (cyclin dependent kinase 8),1,0.715,1,-0.146,-0.0664,-0.173,inactive
PRKCI (protein kinase C iota),1,0.176,0.922,0.0338,0.0757,-0.0186,inactive
PIP4K2A (phosphatidylinositol-5-phosphate 4-kinase type 2 alpha),1,0.715,1,-0.157,-0.173,-0.362,inactive
CALM2 (calmodulin 2),1,-1.31,0.705,0.02,-0.143,-0.0467,inactive
NEK6 (NIMA related kinase 6),1,0.715,1,-0.0572,-0.0902,-0.0735,inactive
